The results in this text go back to paper doi:10.1101/2023.03.17.533231.

Chains of the proteins cited; added tags and fusions are not shown.
UniProt Q8TEK3, whole entry: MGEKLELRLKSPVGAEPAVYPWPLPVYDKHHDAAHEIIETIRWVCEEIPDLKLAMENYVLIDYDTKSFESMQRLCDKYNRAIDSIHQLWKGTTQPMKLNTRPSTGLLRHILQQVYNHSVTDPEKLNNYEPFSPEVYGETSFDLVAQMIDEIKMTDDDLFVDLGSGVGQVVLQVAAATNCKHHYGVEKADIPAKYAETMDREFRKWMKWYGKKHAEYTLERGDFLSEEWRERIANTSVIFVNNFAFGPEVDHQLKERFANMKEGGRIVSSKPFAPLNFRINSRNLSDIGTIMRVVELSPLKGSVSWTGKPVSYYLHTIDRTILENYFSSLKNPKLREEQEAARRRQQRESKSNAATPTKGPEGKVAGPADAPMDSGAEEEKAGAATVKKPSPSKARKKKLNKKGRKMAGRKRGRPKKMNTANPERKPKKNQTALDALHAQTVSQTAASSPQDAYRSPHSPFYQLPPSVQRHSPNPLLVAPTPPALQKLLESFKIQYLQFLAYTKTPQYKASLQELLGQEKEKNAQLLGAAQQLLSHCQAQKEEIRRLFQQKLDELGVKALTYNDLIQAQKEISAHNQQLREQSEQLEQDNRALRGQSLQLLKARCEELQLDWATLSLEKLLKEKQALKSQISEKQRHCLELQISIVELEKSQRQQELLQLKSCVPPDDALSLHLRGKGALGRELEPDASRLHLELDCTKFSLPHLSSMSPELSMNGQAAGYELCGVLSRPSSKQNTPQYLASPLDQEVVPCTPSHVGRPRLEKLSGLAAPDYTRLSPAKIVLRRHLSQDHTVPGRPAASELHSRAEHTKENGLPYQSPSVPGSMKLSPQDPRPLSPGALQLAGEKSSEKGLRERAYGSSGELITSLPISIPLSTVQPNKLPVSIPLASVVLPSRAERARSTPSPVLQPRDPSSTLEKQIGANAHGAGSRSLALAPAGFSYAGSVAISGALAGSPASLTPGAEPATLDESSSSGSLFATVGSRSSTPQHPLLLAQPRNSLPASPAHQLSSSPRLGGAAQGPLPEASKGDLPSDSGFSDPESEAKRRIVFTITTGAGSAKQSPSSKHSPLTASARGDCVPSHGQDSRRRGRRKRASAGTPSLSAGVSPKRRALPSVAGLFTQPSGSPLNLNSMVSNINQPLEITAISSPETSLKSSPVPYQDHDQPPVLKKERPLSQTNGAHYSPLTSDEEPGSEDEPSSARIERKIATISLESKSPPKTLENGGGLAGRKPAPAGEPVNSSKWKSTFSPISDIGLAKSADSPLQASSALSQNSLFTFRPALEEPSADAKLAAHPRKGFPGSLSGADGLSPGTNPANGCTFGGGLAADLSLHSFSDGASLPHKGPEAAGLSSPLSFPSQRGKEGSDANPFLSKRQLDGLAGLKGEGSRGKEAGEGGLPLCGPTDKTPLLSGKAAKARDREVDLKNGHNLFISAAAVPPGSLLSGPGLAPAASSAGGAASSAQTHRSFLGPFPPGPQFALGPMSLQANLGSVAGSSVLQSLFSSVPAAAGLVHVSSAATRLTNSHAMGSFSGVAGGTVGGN

The target in this assay is T1, MLLT10 (human (endogenous in MV4;11)) (UniProt P55197).
T1 sequence: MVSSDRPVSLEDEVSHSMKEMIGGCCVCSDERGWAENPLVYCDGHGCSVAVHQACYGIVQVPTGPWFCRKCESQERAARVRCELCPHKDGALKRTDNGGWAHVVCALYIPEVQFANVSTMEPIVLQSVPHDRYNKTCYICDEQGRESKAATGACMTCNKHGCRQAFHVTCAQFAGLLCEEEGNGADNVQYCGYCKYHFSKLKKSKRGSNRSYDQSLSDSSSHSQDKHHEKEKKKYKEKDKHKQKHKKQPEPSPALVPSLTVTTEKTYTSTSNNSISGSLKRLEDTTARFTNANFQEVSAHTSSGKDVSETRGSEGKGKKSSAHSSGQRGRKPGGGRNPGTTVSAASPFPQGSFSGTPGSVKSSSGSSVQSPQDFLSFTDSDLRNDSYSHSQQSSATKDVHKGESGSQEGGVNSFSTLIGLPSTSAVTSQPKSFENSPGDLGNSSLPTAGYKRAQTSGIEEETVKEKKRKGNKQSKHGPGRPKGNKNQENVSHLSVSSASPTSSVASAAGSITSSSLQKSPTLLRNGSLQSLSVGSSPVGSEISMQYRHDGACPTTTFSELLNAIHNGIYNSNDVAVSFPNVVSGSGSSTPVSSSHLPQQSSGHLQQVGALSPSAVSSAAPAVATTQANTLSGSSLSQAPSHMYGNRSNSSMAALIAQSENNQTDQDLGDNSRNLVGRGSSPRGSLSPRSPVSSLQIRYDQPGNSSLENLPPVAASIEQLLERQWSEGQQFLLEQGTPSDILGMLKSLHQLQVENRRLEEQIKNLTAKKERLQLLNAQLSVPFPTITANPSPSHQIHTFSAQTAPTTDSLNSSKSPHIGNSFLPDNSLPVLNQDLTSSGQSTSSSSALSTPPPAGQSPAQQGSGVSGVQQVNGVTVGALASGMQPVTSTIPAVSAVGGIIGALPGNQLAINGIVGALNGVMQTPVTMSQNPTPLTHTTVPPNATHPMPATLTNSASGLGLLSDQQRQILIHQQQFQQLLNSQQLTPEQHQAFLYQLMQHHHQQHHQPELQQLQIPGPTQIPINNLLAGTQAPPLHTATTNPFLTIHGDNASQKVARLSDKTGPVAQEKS
In words: SEC.

These are yes or no findings as the source states them, for the method shown. Some binding calls cover weakened binding; strength is not graded here.

DOT1L (from UniProt Q8TEK3 1-1537): the binding entry is reported as “binds”.
